The record followed here is PMC5312400.

Chains of the proteins cited; added tags and fusions are not shown. Lines headed by an entry give the natural chain unless they say otherwise; changes in a name come on top. Residues count along the entry.
UniProt Q93008: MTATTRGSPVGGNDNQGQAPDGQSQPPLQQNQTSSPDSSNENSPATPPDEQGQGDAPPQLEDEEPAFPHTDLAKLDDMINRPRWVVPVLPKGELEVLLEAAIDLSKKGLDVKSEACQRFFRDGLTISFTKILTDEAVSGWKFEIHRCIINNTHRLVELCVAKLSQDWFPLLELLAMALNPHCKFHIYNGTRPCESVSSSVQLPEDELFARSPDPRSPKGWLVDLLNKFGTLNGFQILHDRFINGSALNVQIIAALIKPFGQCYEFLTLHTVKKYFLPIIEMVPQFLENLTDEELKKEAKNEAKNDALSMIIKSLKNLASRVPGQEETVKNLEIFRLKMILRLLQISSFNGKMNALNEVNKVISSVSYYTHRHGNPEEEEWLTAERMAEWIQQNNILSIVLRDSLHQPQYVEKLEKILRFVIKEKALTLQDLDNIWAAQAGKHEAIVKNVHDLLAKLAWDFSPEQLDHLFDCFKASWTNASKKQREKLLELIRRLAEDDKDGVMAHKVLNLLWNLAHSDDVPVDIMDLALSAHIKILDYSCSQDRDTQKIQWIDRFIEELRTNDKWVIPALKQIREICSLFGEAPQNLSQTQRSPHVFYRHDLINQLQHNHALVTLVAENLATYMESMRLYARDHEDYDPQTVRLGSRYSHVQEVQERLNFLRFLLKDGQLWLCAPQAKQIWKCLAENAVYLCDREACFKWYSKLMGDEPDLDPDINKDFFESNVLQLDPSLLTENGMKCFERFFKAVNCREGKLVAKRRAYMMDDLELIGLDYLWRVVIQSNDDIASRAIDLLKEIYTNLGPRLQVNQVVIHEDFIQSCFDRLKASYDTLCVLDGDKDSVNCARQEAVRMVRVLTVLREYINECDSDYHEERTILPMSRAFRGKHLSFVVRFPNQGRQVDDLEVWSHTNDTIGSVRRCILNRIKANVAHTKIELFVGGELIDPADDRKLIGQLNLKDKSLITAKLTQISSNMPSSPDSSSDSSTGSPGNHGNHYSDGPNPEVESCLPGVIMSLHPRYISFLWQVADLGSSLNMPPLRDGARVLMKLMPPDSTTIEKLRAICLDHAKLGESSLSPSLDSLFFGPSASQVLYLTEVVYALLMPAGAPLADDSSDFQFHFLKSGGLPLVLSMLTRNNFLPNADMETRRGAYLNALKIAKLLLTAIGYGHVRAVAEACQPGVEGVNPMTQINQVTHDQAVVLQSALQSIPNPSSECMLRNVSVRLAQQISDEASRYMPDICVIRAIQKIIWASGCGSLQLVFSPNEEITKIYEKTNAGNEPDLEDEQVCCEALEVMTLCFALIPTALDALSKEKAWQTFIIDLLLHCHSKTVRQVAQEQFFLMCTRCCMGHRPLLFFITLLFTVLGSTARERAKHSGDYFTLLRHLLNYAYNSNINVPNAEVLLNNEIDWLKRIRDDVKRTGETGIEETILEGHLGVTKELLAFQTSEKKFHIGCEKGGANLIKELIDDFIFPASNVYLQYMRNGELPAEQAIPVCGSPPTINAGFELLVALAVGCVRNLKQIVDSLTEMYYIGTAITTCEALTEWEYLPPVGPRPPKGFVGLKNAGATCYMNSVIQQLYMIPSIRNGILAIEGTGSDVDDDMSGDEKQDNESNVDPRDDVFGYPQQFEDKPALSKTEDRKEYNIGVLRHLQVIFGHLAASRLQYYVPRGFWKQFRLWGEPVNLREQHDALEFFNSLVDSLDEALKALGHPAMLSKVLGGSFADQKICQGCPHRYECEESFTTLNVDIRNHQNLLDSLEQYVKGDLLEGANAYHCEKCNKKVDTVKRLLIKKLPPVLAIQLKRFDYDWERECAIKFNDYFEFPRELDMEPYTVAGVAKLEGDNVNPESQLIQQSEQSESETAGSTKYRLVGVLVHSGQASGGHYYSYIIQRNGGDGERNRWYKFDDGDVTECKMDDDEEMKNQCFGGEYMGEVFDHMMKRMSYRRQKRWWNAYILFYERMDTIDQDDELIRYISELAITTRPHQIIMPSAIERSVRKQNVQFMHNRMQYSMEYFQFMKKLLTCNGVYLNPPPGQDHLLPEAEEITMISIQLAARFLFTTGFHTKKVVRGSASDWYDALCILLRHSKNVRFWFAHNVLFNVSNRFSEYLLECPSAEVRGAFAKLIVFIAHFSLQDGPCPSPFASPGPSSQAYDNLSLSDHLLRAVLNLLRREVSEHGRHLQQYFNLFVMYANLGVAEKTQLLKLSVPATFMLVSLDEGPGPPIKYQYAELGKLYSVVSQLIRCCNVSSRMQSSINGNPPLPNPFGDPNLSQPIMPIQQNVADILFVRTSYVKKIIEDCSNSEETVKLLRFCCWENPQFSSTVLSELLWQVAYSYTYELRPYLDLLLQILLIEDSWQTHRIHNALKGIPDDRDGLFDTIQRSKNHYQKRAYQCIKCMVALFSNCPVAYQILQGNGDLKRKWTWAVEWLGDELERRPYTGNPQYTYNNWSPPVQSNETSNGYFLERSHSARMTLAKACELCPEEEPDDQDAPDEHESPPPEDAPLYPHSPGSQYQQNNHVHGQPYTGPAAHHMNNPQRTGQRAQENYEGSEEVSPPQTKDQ
UniProt Q9HCE7: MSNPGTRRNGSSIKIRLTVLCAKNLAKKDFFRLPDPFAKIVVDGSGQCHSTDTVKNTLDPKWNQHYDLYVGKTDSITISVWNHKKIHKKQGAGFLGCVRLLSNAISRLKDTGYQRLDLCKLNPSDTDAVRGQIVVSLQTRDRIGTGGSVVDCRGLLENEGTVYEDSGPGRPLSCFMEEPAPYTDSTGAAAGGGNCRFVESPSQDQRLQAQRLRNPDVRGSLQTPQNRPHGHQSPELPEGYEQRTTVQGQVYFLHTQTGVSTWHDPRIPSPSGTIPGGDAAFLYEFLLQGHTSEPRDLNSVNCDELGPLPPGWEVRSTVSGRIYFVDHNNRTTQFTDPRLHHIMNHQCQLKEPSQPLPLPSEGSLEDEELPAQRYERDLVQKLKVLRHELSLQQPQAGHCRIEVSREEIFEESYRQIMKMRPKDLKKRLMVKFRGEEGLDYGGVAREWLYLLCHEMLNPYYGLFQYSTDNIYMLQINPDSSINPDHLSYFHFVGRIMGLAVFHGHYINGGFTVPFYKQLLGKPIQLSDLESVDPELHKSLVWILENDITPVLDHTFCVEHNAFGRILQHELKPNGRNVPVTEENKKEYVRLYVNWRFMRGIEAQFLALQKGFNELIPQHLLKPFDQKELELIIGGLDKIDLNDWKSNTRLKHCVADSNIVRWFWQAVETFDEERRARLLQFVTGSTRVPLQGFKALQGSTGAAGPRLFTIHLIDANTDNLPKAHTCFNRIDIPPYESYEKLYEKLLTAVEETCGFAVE
UniProt P40337: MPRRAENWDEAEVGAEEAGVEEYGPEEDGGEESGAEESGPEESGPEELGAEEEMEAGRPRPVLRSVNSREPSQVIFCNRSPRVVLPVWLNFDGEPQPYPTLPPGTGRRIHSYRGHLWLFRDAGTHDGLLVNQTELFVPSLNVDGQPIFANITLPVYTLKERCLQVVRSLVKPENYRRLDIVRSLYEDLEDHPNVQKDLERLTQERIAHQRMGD
endogenous pVHL19 (HEK293T): residues 54-213 of P40337

These are yes or no findings as the source states them, for the method shown. In cells and extracts the contact can be indirect. Some entries that bind do so weakly or less than the wild type.

The target of experiment [1] is endogenous USP9X (human (endogenous in 786-0, HEK293T, CAKI)) (UniProt Q93008). Kind of experiment: co-IP; endogenous proteins, HEK293T cells treated with MG132 (10 μM for 4 hours); immunoprecipitation with anti-USP9X, blot with anti-VHL.
The target is the same in experiment [2]. Put plainly: co-IP; endogenous proteins, CAKI cell lysates; immunoprecipitation with anti-USP9X or Smurf1 antibodies, then blotted.
Experiment [3] addresses endogenous Smurf1 (CAKI) (human (endogenous in CAKI)) (UniProt Q9HCE7). Described as above.
The target in experiment [4] is HA-tagged pVHL (786-0 cells) (UniProt P40337). Kind of experiment: co-IP; 786-0 cells infected with HA empty control or HA-VHL, MG132 10 μM for 4 hours; immunoprecipitation with anti-HA, blot with anti-USP9X and anti-HA; 0.5% NP40 lysis buffer.
A further experiment concerns the target Flag-tagged HUWE1 (UniProt Q7Z6Z7). Kind of experiment: co-IP; HEK293T cells transiently transfected with Flag-tagged HUWE1 and HA-tagged pVHL, MG132 treatment; two co-immunoprecipitations.

“endogenous pVHL19 (HEK293T) (from UniProt P40337-3 1-160)”: the binding result in experiment [1] is on record as “binds”.
“endogenous pVHL (CAKI) (from UniProt P40337 1-213)”: the binding result in experiment [2] and in experiment [3] was “binds” throughout.
“endogenous USP9X (from UniProt Q93008 1-2554) (enzyme)”: the binding result in experiment [4] is given as “binds”.
Consider “HA-tagged pVHL (HEK293T, transient) (from UniProt P40337 1-213)”, for which, in the experiment with Flag-tagged HUWE1, the binding result is listed as “binds”.
